Source: US20180037903A1, “METHODS AND MEANS FOR INCREASING STRESS TOLERANCE AND BIOMASS IN PLANTS” (THE UNIVERSITY COURT OF THE UNIVERSITY OF GLASGOW, priority 2013, published 2018)
Results are given in words; binding and its absence hold for the method and conditions named. Binding seen in cells or lysates may run through a third protein. Some binding calls cover weakened binding; strength is not graded here. Sequences can lack the tags named with a protein.

Tests used:
[1] = molecular target: T1, recombinant GST-HDA19 (Arabidopsis thaliana) (UniProt O22446); experiment: GST pull-down from nuclei-enriched plant protein samples, anti-HDC1 Western blot
T1 sequence (looked up): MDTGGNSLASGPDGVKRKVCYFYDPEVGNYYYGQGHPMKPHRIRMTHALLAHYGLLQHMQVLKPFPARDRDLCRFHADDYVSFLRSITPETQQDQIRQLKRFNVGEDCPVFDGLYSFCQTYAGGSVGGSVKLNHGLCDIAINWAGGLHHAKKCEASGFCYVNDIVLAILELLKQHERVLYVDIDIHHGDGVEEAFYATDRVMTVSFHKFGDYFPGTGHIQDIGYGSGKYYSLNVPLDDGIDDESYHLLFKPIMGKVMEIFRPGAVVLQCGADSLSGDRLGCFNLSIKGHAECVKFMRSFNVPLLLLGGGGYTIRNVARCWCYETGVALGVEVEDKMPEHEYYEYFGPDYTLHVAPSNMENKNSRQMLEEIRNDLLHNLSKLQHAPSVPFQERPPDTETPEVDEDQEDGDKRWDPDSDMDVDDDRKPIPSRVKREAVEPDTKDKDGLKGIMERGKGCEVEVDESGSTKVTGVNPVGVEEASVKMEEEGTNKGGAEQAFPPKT

[2] = molecular target: T2, recombinant GST-HDA6 (Arabidopsis thaliana) (UniProt Q9FML2); experiment: as above
T2 sequence (looked up): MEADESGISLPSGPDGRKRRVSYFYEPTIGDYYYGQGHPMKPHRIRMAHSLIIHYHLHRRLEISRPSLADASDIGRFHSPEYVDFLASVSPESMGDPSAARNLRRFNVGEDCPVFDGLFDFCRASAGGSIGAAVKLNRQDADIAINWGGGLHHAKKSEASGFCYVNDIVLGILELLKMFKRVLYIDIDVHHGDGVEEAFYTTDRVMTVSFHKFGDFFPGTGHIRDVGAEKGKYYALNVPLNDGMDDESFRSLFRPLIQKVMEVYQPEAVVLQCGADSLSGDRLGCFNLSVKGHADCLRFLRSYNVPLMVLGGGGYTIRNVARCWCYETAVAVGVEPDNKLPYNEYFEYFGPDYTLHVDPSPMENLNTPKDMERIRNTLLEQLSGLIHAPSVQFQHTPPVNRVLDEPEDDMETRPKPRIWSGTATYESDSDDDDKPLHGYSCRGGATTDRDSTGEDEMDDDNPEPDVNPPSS

[3] = molecular target: T2, recombinant GST-HDA6 (Arabidopsis thaliana); experiment: in-vitro GST pull-down of recombinant HDC1-His with GST-HDA6, anti-His Western blot
[4] = molecular target: T1, recombinant GST-HDA19 (Arabidopsis thaliana); experiment: in-vitro GST pull-down of recombinant HDC1-His with GST-HDA19, anti-His Western blot

B1: native HDC1 from nuclei-enriched protein samples of A. thaliana wildtype plants (protein)
chain: MSGVPKRSHEEGVTHPSSSSSVAKYPHEDSGSYPKSPHQPVTPPPAQVHHNHQQPHQHPQSQSQSQPQPHLQALPHPHSHSHSHSPLAAAASASAPYEVESRTVVKVARSEPRDGERRSPLPLVYRSPSLPTTVSSSDPHLTHAPVPMEPRDGAKDGREIRVESRENRSDGREIYGETKREIQGPKGDRDVKFERSVDDFSGKGNTGSYTRNDGREMYGETKREIQGPKSDRDAKFERPGDDFSGKSNAGSYTRDTKFDRENQNYNEQKGEIKMEKEGHAHLAWKEQKDYHRGKRVAEGSTANVDPWVVSRGNPQGPTEVGPKDLSAPVEGSHLEGRETVGENKVDAKNEDRFKEKDKKRKELKHREWGDRDKDRNDRRVSVLVGSVMSEPKEIGREERESDRWERERMEQKDRERNKEKDKDHIKREPRTGAEKEISQNEKELGEASAKPSEQEYVAPEQKKQNEPDNCEKDERETKEKRRERDGDSEAERAEKRSRISEKESEDGCLEGEGATEREKDAFNYGVQQRKRALRPRGSPQTTNRDNVRSRSQDNEGVQGKSEVSIVVYKVGECMQELIKLWKEYDLSHPDKSGDFANNGPTLEVRIPAEHVTATNRQVRGGQLWGTDIYTDDSDLVAVLMHTGYCRPTASPPPPTMQELRTTIRVLPSQDYYTSKLRNNVRSRAWGAGIGCSYRVERCYILKKGGGTIELEPSLTHSSTVEPTLAPMAVERSMTTRAAASNALRQQRFVREVTIQYNLCNEPWIKYSISIVADKGLKKPLFTSARLKKGEVLYLETHSCRYELCFAGEKTIKAIQASQQQSSHEAMETDNNNNKSQNHLTNGDKTDSDNSLIDVFRWSRCKKPLPQKLMRSIGFPLPADHIEVLEENLDWEDVQWSQTGVWIAGKEYTLARVHFLSPN
- binding [1]: binds
- binding [2]: binds

B2: recombinant HDC1-His (protein, not shown: small tags and cut ends)
chain: MSGVPKRSHEEGVTHPSSSSSVAKYPHEDSGSYPKSPHQPVTPPPAQVHHNHQQPHQHPQSQSQSQPQPHLQALPHPHSHSHSHSPLAAAASASAPYEVESRTVVKVARSEPRDGERRSPLPLVYRSPSLPTTVSSSDPHLTHAPVPMEPRDGAKDGREIRVESRENRSDGREIYGETKREIQGPKGDRDVKFERSVDDFSGKGNTGSYTRNDGREMYGETKREIQGPKSDRDAKFERPGDDFSGKSNAGSYTRDTKFDRENQNYNEQKGEIKMEKEGHAHLAWKEQKDYHRGKRVAEGSTANVDPWVVSRGNPQGPTEVGPKDLSAPVEGSHLEGRETVGENKVDAKNEDRFKEKDKKRKELKHREWGDRDKDRNDRRVSVLVGSVMSEPKEIGREERESDRWERERMEQKDRERNKEKDKDHIKREPRTGAEKEISQNEKELGEASAKPSEQEYVAPEQKKQNEPDNCEKDERETKEKRRERDGDSEAERAEKRSRISEKESEDGCLEGEGATEREKDAFNYGVQQRKRALRPRGSPQTTNRDNVRSRSQDNEGVQGKSEVSIVVYKVGECMQELIKLWKEYDLSHPDKSGDFANNGPTLEVRIPAEHVTATNRQVRGGQLWGTDIYTDDSDLVAVLMHTGYCRPTASPPPPTMQELRTTIRVLPSQDYYTSKLRNNVRSRAWGAGIGCSYRVERCYILKKGGGTIELEPSLTHSSTVEPTLAPMAVERSMTTRAAASNALRQQRFVREVTIQYNLCNEPWIKYSISIVADKGLKKPLFTSARLKKGEVLYLETHSCRYELCFAGEKTIKAIQASQQQSSHEAMETDNNNNKSQNHLTNGDKTDSDNSLIDVFRWSRCKKPLPQKLMRSIGFPLPADHIEVLEENLDWEDVQWSQTGVWIAGKEYTLARVHFLSPN
- binding [3]: binds
- binding [4]: binds
